Data on one compound can be found in patent US8883512B1, “Method for diagnosing gestational diabetes, preeclampsia, and fetal growth restriction” (priority 2011, dated 2014).

The subject of the series is pregnant Sprague-Dawley rats. The experiment in a line: Serum retinoid profiles by HPLC in pregnant rats treated with streptozotocin. The format is in vivo, rat.
Setting [1] is: STZ 75 mg/kg, n = 10, control 0.13.

The structures appear in SMILES notation.

For `CN(N=O)C(=O)N[C@H]1C(O)O[C@H](CO)[C@@H](O)[C@@H]1O` (mixture of isomers) [STZ, streptozotocin], the “Retinol, median” value (STZ 75 mg/kg I.P., day 20, n = 10, control 1.04) came to 0.45 µmol/L. For the setting “STZ 75 mg/kg, n = 9”, the “All Trans RA, range” value lay in the range of 0.0079 to 0.1065 µmol/L. In addition, the “All Trans RA, median” value (STZ 75 mg/kg, n = 9, control 0.0075) was 0.0155 µmol/L. Moreover, where the note is “STZ 75 mg/kg, n = 10”, the “% Ester, range” value is 14.4-83.6%; the “Ester/ROL ratio, range” value is listed as 0.22-10.74; the “Retinol, range” value is 0.16 to 0.68 µmol/L; the “Total Ester, range” value was in the range of 0.09 to 1.75 µmol/L. In addition, for the setting “STZ 75 mg/kg, n = 10”, the “Total serum Vitamin A, range” value was in the range of 0.58 to 2.10 µmol/L. Further, under setting [1], the “Ester/ROL ratio, median” value is listed as 0.33 and the “Total Ester, median” value was determined as 0.22 µmol/L. The “Total serum Vitamin A, median” value (STZ 75 mg/kg, n = 10, control 1.24) was found to be 0.78 µmol/L. The “% Ester (retinyl esters as fraction of total vitamin A), median” value (STZ 75 mg/kg, n = 10, control 11.25) was found to be 23.96%.
